No constants are given. Whether binding was seen depends on the method and setting. Some results given as binding are weak or reduced against the parent protein; the word gives no strength.
Target: 15N-labeled E. coli apo-ACP (unmodified acyl carrier protein), NMR sample (E. coli) (UniProt P0A6A8)
Experiment: NMR titration; 15N-labeled ACP (0.3 to 0.4 mM) titrated with unlabeled LipBK135A/C169A, 0.25 to 2 molar equivalents; 1H15N TROSY-HSQC; 50 mM Tris, 200 mM NaCl, pH 7.8; both purified

Protein sequences, listed by entry. Tags and fused reporters are not part of them. Residues count along the entry.
UniProt P0A6A8, residues 2-78: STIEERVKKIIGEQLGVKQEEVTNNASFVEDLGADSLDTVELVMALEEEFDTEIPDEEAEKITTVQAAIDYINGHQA

- binding: binds weakly
B1: E. coli LipBK135A/C169A (catalytically inactive double mutant of lipoate protein ligase B) (enzyme, UniProt P60720 1-213)
chain: MYQDKILVRQLGLQPYEPISQAMHEFTDTRDDSTLDEIWLVEHYPVFTQGQAGKAEHILMPGDIPVIQSDRGGQVTYHGPGQQVMYVLLNLKRRKLGVRELVTLLEQTVVNTLAELGIEAHPRADAPGVYVGEKAICSLGLRIRRGCSFHGLALNVNMDLSPFLRINPAGYAGMEMAKISQWKPEATTNNIAPRLLENILALLNNPDFEYITA

Source: paper PMC9307952, “Lipoate protein ligase B primarily recognizes the C8-phosphopantetheine arm of its donor substrate and weakly binds the acyl carrier protein” (The Journal of Biological Chemistry, 2022)
